Data as given in PubChem BioAssay AID1224830 (NIAID, 2016)

Screen: 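Genes whose knock-down alters the TNF-alpha reporter response to LPS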 (primary screen)
Cell system: human THP-1 monocytic leukaemia cells, TNF dual-luciferase reporter clone, PMA-differentiated to macrophage-like cells
Reagent: siRNA pool against human genes, 50 nM
Duration: LPS for 4 h, given about 3 days after siRNA transfection
Challenge: bacterial LPS (TLR4 ligand), 10 ng/ml
Detection: 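Ratio of firefly to renilla light, scaled to the plate median and expressed as a robust z-score per replicate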
Reading the numbers: TNF reporter robust z-score: higher = stronger TNF reporter response to LPS
Hit rule: 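a well is active when its z-score exceeds 2.8 or falls below -1.5; control wells carry no call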
This is a random part of about 18,000 reagents. About 2,900 of all reagents (16%) count as active. 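Calls are made per well; low scores hint the gene aids the LPS response, high scores that it dampens it.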 The numbers tell different reagents against one gene apart. Repeated entries: four replicate wells of each siRNA pool.

SLC30A10 | TNF reporter robust z-score = -0.86; Call = inactive
SLC30A10 | TNF reporter robust z-score = 0.02; Call = inactive
SLC30A10 | TNF reporter robust z-score = -0.07; Call = inactive
SLC30A10 | TNF reporter robust z-score = 0.83; Call = inactive
RAB28 (RAB28, member RAS oncogene family) | TNF reporter robust z-score = -1.25; Call = inactive
RAB28 (RAB28, member RAS oncogene family) | TNF reporter robust z-score = -1.44; Call = inactive
RAB28 (RAB28, member RAS oncogene family) | TNF reporter robust z-score = -1.39; Call = inactive
RAB28 (RAB28, member RAS oncogene family) | TNF reporter robust z-score = -1.2; Call = inactive
C1orf35 (chromosome 1 open reading frame 35) | TNF reporter robust z-score = -0.46; Call = inactive
C1orf35 (chromosome 1 open reading frame 35) | TNF reporter robust z-score = 0.37; Call = inactive
C1orf35 (chromosome 1 open reading frame 35) | TNF reporter robust z-score = 0.63; Call = inactive
C1orf35 (chromosome 1 open reading frame 35) | TNF reporter robust z-score = 0.01; Call = inactive
NGFR (nerve growth factor receptor) | TNF reporter robust z-score = 0.55; Call = inactive
NGFR (nerve growth factor receptor) | TNF reporter robust z-score = -1.19; Call = inactive
NGFR (nerve growth factor receptor) | TNF reporter robust z-score = -1.11; Call = inactive
NGFR (nerve growth factor receptor) | TNF reporter robust z-score = -1.16; Call = inactive
OR4C16 (olfactory receptor family 4 subfamily C member 16) | TNF reporter robust z-score = -1.21; Call = inactive
OR4C16 (olfactory receptor family 4 subfamily C member 16) | TNF reporter robust z-score = -0.63; Call = inactive
OR4C16 (olfactory receptor family 4 subfamily C member 16) | TNF reporter robust z-score = 0.24; Call = inactive
OR4C16 (olfactory receptor family 4 subfamily C member 16) | TNF reporter robust z-score = 0.43; Call = inactive
ACVR2B (activin A receptor type 2B) | TNF reporter robust z-score = -1.06; Call = inactive
ACVR2B (activin A receptor type 2B) | TNF reporter robust z-score = -0.55; Call = inactive
ACVR2B (activin A receptor type 2B) | TNF reporter robust z-score = -0.29; Call = inactive
ACVR2B (activin A receptor type 2B) | TNF reporter robust z-score = 0.41; Call = inactive
ATR (ATR checkpoint kinase) | TNF reporter robust z-score = -1.85; Call = active
ATR (ATR checkpoint kinase) | TNF reporter robust z-score = -1.26; Call = inactive
ATR (ATR checkpoint kinase) | TNF reporter robust z-score = -1.38; Call = inactive
ATR (ATR checkpoint kinase) | TNF reporter robust z-score = -1.18; Call = inactive
ITGA4 (integrin subunit alpha 4) | TNF reporter robust z-score = 0.29; Call = inactive
ITGA4 (integrin subunit alpha 4) | TNF reporter robust z-score = -0.03; Call = inactive
ITGA4 (integrin subunit alpha 4) | TNF reporter robust z-score = 0; Call = inactive
ITGA4 (integrin subunit alpha 4) | TNF reporter robust z-score = 0.9; Call = inactive
MIA2 (MIA SH3 domain ER export factor 2) #1 | TNF reporter robust z-score = 0.35; Call = inactive
MIA2 (MIA SH3 domain ER export factor 2) #1 | TNF reporter robust z-score = 0.76; Call = inactive
MIA2 (MIA SH3 domain ER export factor 2) #1 | TNF reporter robust z-score = 0.79; Call = inactive
MIA2 (MIA SH3 domain ER export factor 2) #1 | TNF reporter robust z-score = 1.19; Call = inactive
MIA2 (MIA SH3 domain ER export factor 2) #2 | TNF reporter robust z-score = -0.07; Call = inactive
MIA2 (MIA SH3 domain ER export factor 2) #2 | TNF reporter robust z-score = 0.28; Call = inactive
MIA2 (MIA SH3 domain ER export factor 2) #2 | TNF reporter robust z-score = 0.3; Call = inactive
MIA2 (MIA SH3 domain ER export factor 2) #2 | TNF reporter robust z-score = -0.08; Call = inactive
SLC51B (SLC51 subunit beta) | TNF reporter robust z-score = 0.81; Call = inactive
SLC51B (SLC51 subunit beta) | TNF reporter robust z-score = 0.47; Call = inactive
SLC51B (SLC51 subunit beta) | TNF reporter robust z-score = 1.43; Call = inactive
SLC51B (SLC51 subunit beta) | TNF reporter robust z-score = 1.12; Call = inactive
MRPS24 (mitochondrial ribosomal protein S24) | TNF reporter robust z-score = -1.18; Call = inactive
MRPS24 (mitochondrial ribosomal protein S24) | TNF reporter robust z-score = -1.28; Call = inactive
MRPS24 (mitochondrial ribosomal protein S24) | TNF reporter robust z-score = -1.13; Call = inactive
MRPS24 (mitochondrial ribosomal protein S24) | TNF reporter robust z-score = -0.98; Call = inactive

A portion from the list above, for reference:
OR4C16 (olfactory receptor family 4 subfamily C member 16) | TNF reporter robust z-score = 0.43; Call = inactive
ACVR2B (activin A receptor type 2B) | TNF reporter robust z-score = -1.06; Call = inactive
ACVR2B (activin A receptor type 2B) | TNF reporter robust z-score = -0.55; Call = inactive
